Patent US20190270793A1
No constants are given. Whether binding was seen depends on the method and setting. Some results given as binding are weak or reduced against the parent protein; the word gives no strength. For some assays here: Tags and fused reporters may be left off the sequences shown.

By UniProt entry, the sequences of proteins in these tests, tags left out. Where a name states a change or a piece, a line headed by the entry shows the natural chain unless it says otherwise. Chains listed by the source or under a name are the forms on record and can include a tag or linker.
PHF-tau (paired helical filament-tau), partially purified from postmortem cortex of an Alzheimer patient (P10636, form named): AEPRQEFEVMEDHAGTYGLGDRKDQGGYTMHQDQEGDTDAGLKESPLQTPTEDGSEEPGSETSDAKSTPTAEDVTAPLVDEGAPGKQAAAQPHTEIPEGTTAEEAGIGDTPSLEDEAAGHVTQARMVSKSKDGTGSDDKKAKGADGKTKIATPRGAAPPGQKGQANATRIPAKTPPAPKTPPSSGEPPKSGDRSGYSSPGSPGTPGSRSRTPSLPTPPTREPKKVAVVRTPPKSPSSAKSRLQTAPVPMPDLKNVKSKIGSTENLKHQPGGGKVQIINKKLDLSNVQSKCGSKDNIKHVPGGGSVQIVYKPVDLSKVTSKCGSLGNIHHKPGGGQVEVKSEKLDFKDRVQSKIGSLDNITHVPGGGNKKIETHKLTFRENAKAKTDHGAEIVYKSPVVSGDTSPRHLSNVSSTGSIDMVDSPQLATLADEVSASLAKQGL

Experiments:
[1] = target: PHF-tau (paired helical filament-tau), partially purified from postmortem cortex of an Alzheimer patient (human) (UniProt P10636); experiment: SPR
[2] = target: PHF-tau (paired helical filament-tau), partially purified from postmortem cortex of an Alzheimer patient (human) (UniProt P10636); experiment: SPR sensorgrams at 75, 15, 3 and 0.6 nM
[3] = target: PHF-tau (paired helical filament-tau), partially purified from postmortem cortex of an Alzheimer patient (human) (UniProt P10636); experiment: SPR, antibody at 75, 15, 3 and 0.6 nM on PHF-tau
[4] = target: PHF-tau (paired helical filament-tau), partially purified from postmortem cortex of an Alzheimer patient (human) (UniProt P10636); experiment: SPR, Fab at 75, 15, 3 and 0.6 nM on PHF-tau
[5] = target: soluble tau (control tau; recombinant 2N4R tau, SEQ ID NO:31) (human) (UniProt P10636); experiment: ELISA, 2N4R Tau coated at 10 ng/mL or 1 ng/mL
[6] = target: soluble tau (control tau; recombinant 2N4R tau, SEQ ID NO:31) (human) (UniProt P10636); experiment: ELISA, full-length Tau coated at 1 ng/mL or 10 ng/mL
[7] = target: PHF-tau (paired helical filament-tau), partially purified from postmortem cortex of an Alzheimer patient (human) (UniProt P10636); experiment: direct ELISA, hybridoma supernatant on 25 ng/well coated PHF-tau
[8] = target: soluble tau (control tau; recombinant 2N4R tau, SEQ ID NO:31) (human) (UniProt P10636); experiment: direct ELISA, hybridoma supernatant on 10 ng/well coated control tau
[9] = target: soluble tau (control tau; recombinant 2N4R tau, SEQ ID NO:31) (human) (UniProt P10636); experiment: direct ELISA on coated 2N4R tau (10 ng/mL and 1 ng/mL), HRPO anti-mouse antibody, O.D. 450 nm

Measured: binding

B1: PT82 mAb, recombinantly expressed (mouse IgG2a/kappa) (antibody, V domains shown)
VH: EVKLEESGGGLVQPGGSMKLSCVASGFTFSNYWMNWIRQSPEKGLEWVAQIRLQSDNYATRYAESVKGRFTISRDESKTSVYLQMNNLRTEDTGIYYCTGGTTYWGQGTLVTVSA
VL: DIVMTQSQKFMSTSVGDRVSITCKASQNVGTAVAWYQQKPGQSPKLLIYSASIRYTGVPDRFTGSGSGTDFTLTINYMQSEDLADYFCQQFSSYPYTFGGGTKLEIK
binds: [1] | [2] | [3]

B2: PT82 Fab (chimeric: mouse variable domains on human IgG1/kappa constant domains, His tag at the C-terminus of the heavy chain) (Fab, V domains shown)
VH: B1 VH
VL: B1 VL
binds: [1] | [2] | [4]

B3: PT82 from hybridoma supernatant (hybridoma-produced mouse monoclonal antibody) (antibody, V domains shown)
VH: B1 VH
VL: B1 VL
binds: [5] | [6] | [7] | [8] | [9]
